Assay: Fluorescence lifetime imaging (FLIM) of amyloid fibril formation in vitro
Assay type: physicochemical
Conditions: free dye
Procedure: We first examined whether a Hilyte Fluor 488 (HF488) dye attached to the N termini of Aβ(1–40) and Aβ(1–42) could act as a reporter of amyloid formation by monitoring how the fluorescence intensity of the dye changes as fibril formation occurs in vitro for each of the two Aβ isoforms. The appearance of fibrillar species was identified by means of dot blot experiments using the conformation-specific antibody LOC ([Kayed et al., 2007]), and the HF488 fluorescence intensity was measured in parallel (Figure 1A; Figure S1 available online). […] This small difference, however, could result from the fact that LOC recognizes fibrillar oligomers as well as amyloid fibrils, whereas the fluorescence quenching is likely to be associated predominately with amyloid fibrils. […] The fluorescence lifetimes in each pixel of these images were obtained by fitting monoexponential decay functions to the observed time-resolved fluorescence decays, and the data and images are shown in Figures 1C and 1D.
All in vitro experiments were performed at a peptide concentration of 5 μM in 50 mM sodium phosphate buffer at pH 7.4. Aggregation kinetics were monitored by steady-state fluorescence in a FLUOstar Optima microplate reader (BMG Labtech) and sealed black Costar half-area, 96-well plates (Corning Life Sciences). […]

## Hilyte Fluor 488 acid [HF488 dye]
pH 5.0, mean ± SD
  fluorescence lifetime of the unconjugated dye, pH 5.0: 4.0 ± 0.1 ns
pH 7.4, mean ± SD
  fluorescence lifetime of the unconjugated dye, pH 7.4: 4.0 ± 0.1 ns
